Paper PMC4951308
These are yes or no findings as the source states them, for the method shown. For some assays here: In cells and extracts the contact can be indirect. Some entries that bind do so weakly or less than the wild type.

The chains behind the UniProt entries cited, without tags or fusion partners. Where a name states a change or a piece, a line headed by the entry shows the natural chain unless it says otherwise. Residues count along the entry.
UniProt O00303: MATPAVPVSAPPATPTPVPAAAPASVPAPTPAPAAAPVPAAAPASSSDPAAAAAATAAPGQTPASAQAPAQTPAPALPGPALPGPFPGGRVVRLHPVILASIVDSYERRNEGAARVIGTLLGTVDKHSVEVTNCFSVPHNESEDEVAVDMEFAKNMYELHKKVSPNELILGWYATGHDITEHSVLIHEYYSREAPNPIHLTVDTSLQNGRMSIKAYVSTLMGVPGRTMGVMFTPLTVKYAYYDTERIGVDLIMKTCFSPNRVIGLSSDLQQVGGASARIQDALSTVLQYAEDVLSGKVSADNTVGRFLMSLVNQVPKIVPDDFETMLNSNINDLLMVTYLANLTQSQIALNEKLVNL
UniProt P10909: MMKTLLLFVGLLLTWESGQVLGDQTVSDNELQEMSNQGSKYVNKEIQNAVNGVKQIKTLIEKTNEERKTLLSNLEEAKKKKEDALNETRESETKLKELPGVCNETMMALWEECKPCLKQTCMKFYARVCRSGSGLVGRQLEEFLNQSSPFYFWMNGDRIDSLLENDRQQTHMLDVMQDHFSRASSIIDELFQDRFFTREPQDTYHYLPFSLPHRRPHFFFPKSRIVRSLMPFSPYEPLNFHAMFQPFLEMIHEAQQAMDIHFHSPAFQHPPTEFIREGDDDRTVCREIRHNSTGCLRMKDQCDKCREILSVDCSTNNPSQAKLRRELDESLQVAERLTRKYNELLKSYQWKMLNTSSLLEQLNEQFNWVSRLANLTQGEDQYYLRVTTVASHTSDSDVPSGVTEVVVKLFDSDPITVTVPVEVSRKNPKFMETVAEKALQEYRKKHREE
Clusterin 1-227, bait in pGilda: residues 1-227 of P10909

Legend:
[1] = target: FLAG-eIF3f, full length, expressed from pcDNA3-flag in HEK293a cells (human) (UniProt O00303); test: co-IP; HEK293a cells transfected with expression vectors; NP-40 lysis buffer (20mM Tris-HCl pH8.0, 150mM NaCl, 1% NP-40); 1.5 mg lysate with CLU polyclonal or flag monoclonal antibody overnight at 4°C, protein A/G agarose; Western blot
[2] = target: Clusterin expressed from pcDNA3.1-CLU in HEK293a cells (human) (UniProt P10909); test: as above
[3] = target: Clusterin, full (1-449), bait in pGilda (human) (UniProt P10909); test: two-hybrid; Matchmaker LexA system, EGY48 yeast; CLU constructs in pGilda (bait), eIF3f constructs in pB42AD (prey); growth on plates lacking leucine and β-galactosidase on X-gal plates, 30°C
[4] = target: Clusterin 1-227, bait in pGilda (human) (UniProt P10909); test: as above

Q: With “Clusterin expressed from pcDNA3.1-CLU in HEK293a cells (from UniProt P10909 23-449)” as the substance, how does the binding [1] read?
A: binds

Q: Which binding [2] does the source give for “FLAG-eIF3f, full length, expressed from pcDNA3-flag in HEK293a cells (from UniProt O00303 1-357)” here?
A: binds

Q: With “eIF3f 1-170, prey in pB42AD (from UniProt O00303 1-170) (domain or fragment)” as the substance, how does the binding [3] read?
A: binds

Q: How did the binding [3] turn out when “eIF3f, full (1-358), prey in pB42AD (from UniProt O00303 1-357)” was run?
A: binds

Q: What about the binding [4] of the same substance?
A: binds
